# Laboratory results: PubChem BioAssay AID1688 (National Center for Advancing Translational Sciences (NCATS), 2009)
# About 2,400 (1.1%) of roughly 220,000 compounds were called active. Inconclusive results, whose numbers are uncertain, are shown with a selection of clear calls. Calls follow the shape of the dose curve; as a rule, active = well fitted inhibition curve with a large enough effect; inconclusive = small, poorly fitted or top-dose-only effect, or effect the other way; inactive = no such curve, though single readings can be large or run the other way. Potencies beside an inconclusive call are fits to weak or partial responses and may not hold up.
# Assay: qHTS Multiplex Assay to Identify Dual Action Probes in a Cell Model of Huntington: Aggregate Formation (GFP); also: nearly all actives have a fitted effect of over 60% in size
# Conditions: PC12 HttQ103-GFP aggregates, Acumen cytometry, 40 h; activity change, negative = inhibition: at 46.1 µM (top of the series) unless noted
# How it was run: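 Read-out: GFP aggregate count by laser scanning cytometer (488 nm excitation, 500-530 nm emission, 1–25 µm objects >6 SD above background). Cells: PC12, inducible HTTex1-Q103-GFP, 100 nM tebufenozide; compounds titrated.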
# % is scaled to controls: 0 for no effect and ±100 for the full control effect; potency is read from the fitted curve at half-maximal effect.
Structure (SMILES),Potency,"activity change, negative = inhibition"
Cc1ccc(S(=O)(=O)N(Cc2ccc(Cl)cc2)c2ccccc2C(=O)NCc2ccco2)cc1,"inconclusive: 2.82 µM [inhibitor, single point]",
COc1ccc(OC)c(N=c2oc3cc(O)ccc3cc2C(N)=O)c1,"inconclusive: 14.1 µM [inhibitor, partial curve]",
Clc1cc(Br)ccc1OCCN1CCOCC1,"inconclusive: 10 µM [inhibitor, single point]",
CCCN1CCN(C(=O)c2cn(CC(C)C)c(=O)c3cc(OC)c(OC)cc23)CC1,inactive,
C/C(=N/NC(=O)c1sc(=S)n(C)c1C)c1ccccc1,"inconclusive: 3.16 µM [inhibitor, single point]",
C/C(=N\NC(=S)NCc1ccccc1)c1ccc(C(C)(C)C)cc1,"inconclusive: 0.501 µM [inhibitor, full curve, poor fit]",
N=c1ccn(Cc2ccc(Cl)c(Cl)c2)cc1,active: 2 µM,
CC1CN(S(=O)(=O)c2ccc(C(=O)Nc3nc(-c4cc5ccccc5o4)cs3)cc2)CC(C)O1 (centres undefined),"inconclusive: 5.62 µM [inhibitor, single point]",
COc1ccc(CN2CCCC(C(=O)c3ccc(Cl)cc3)C2)cc1Cn1cccn1 (centres undefined),"inconclusive: 35.5 µM [inhibitor, single point]",
COc1ccccc1/C=C1\NC(=S)N(CC2CCCO2)C1=O (centres undefined),inactive,
O=[N+]([O-])c1ccc(O)c(/C=N\N=C2c3ccccc3-c3ccccc32)c1,active: 11.2 µM,
CC(=O)Nc1ccc(C(=O)Nc2nc(-c3ccccn3)cs2)cc1,"inconclusive: 11.2 µM [inhibitor, single point]",
Cc1c(Br)c([N+](=O)[O-])nn1CC(=O)Nc1c(C)n(C)n(-c2ccccc2)c1=O,"inconclusive: 35.5 µM [inhibitor, single point]",
COc1cccc([C@@H]2Oc3ccc(OC)cc3C(=O)[C@H]2O)c1,"inconclusive: 10 µM [inhibitor, partial curve]",
Cc1nc2cc(F)ccc2n1C1CCN(C(=O)c2c(F)cccc2F)CC1,"inconclusive: 15.8 µM [inhibitor, partial curve]",
O=C(c1ccc2c(c1)OCO2)N1CCC2(CC1)Oc1ccc(F)cc1C(=O)C21CC(c2ccccc2)=NO1 (centres undefined),,inactive: 0% [at 9.22 µM]
COc1cc(OC)c(OC)cc1C#N,inactive,
Cc1ccccc1OCCC(=O)OCC(=O)Nc1cc(S(=O)(=O)N2CCOCC2)ccc1Cl,inactive,
Cc1ccc(C(=O)NN2C(=O)/C(=C/c3cn(C)c4ccccc34)SC2=S)cc1,inactive,
C/C(=C\C(=S)Nc1ccccc1)Nc1ccccc1,inactive,
CCn1ncc(C2=NOC(C(=O)Nc3cccc(O)c3)C2)c1C (centres undefined),"inconclusive: 0.562 µM [activator, partial curve, poor fit]",
Cc1cc(N/N=C/c2ccc(Cl)cc2Cl)nc(NCc2ccccc2)n1,"inconclusive: 11.2 µM [inhibitor, partial curve]",
CCC(=O)Nc1nnc(-c2ccc(OC)cc2)o1,"inconclusive: 8.91 µM [inhibitor, partial curve, poor fit]",
Cc1ccc(/C(N)=N/OC(=O)c2cccc(Cn3cc(C(F)(F)F)ccc3=O)c2)cc1,,inactive: 10.5% [at 9.22 µM]
CC(C)OC(=O)CNc1n[nH]c(=S)[nH]c1=O,,inactive: -14.9% [at 9.22 µM]

# One compound at a time, from the list above.
# CC(C)OC(=O)CNc1n[nH]c(=S)[nH]c1=O is listed as activity change, negative = inhibition: inactive: -14.9% [at 9.22 µM]
# CCC(=O)Nc1nnc(-c2ccc(OC)cc2)o1 is listed as Potency: inconclusive: 8.91 µM [inhibitor, partial curve, poor fit]

# Going on with the list:

Structure (SMILES),Potency,"activity change, negative = inhibition"
CC(O)CN1C(=O)C(CC(=O)Nc2ccc(Cl)cc2)SC1=Nc1ccccc1 (centres undefined),inactive,
COc1ccc(-c2nnc(SCC(=O)N3CCCCC3)o2)c(OC)c1,inactive,
CC(=O)NC(Cc1ccc(F)cc1)C(=O)NC1CCN(c2nnnn2-c2ccccc2)CC1 (centres undefined),inactive,
Oc1ccc(N=Cc2sc3ccccc3c2Cl)cc1,"inconclusive: 15.8 µM [activator, partial curve]",
Cc1cc(C)nc(SCC(=O)N/N=C/c2cccn2-c2cccc(C(F)(F)F)c2)n1,inactive,
CCOC(=O)C(C)/C(C)=N/NC(=O)c1cc2ccccc2cc1O (centres undefined),"inconclusive: 35.5 µM [inhibitor, single point]",
COc1ccc(NC(=O)C23CC4CC(C2)CC(c2ccc(C)cc2)(C4)C3)cc1,inactive,
COc1ccc(/C=C2\C(=O)N(Cc3ccc(F)cc3)CC(=O)N2Cc2ccccc2)cc1,"inconclusive: 35.5 µM [inhibitor, single point]",
CC1=CC2=NC(=O)CC(C)(C(=O)N(CC(=O)NC3CCCC3)c3ccccc3C)N2C=C1 (centres undefined),,inactive: -22.9% [at 9.22 µM]
O=C(NCc1cccnc1)/C(=C/c1ccc(-c2cccc(Cl)c2)o1)S(=O)(=O)c1ccccc1,"inconclusive: 15.8 µM [inhibitor, single point]",
C=CCn1c(SCc2c(C)noc2C)nc2cc(C(=O)O)ccc2c1=O,"inconclusive: 14.1 µM [activator, single point]",
CCC(=O)c1cc2c(C)cc(=O)oc2c(C)c1OC,inactive,
COCCN=C1Sc2nc3ccc(C)cc3cc2CN1Cc1ccco1,"inconclusive: 11.2 µM [activator, partial curve]",
CCn1c(SCC(=O)c2[nH]c(C)c(C(C)=O)c2C)nnc1-c1ccccc1,"inconclusive: 35.5 µM [inhibitor, single point]",
CCCCc1ccc(NC(=O)C(=O)NCCN2CCN(Cc3ccc([N+](=O)[O-])cc3)CC2)cc1,"inconclusive: 2.51 µM [inhibitor, full curve]",
COc1ccc(C(=O)NC(=S)NNC(=O)c2ccc(NC(C)=O)cc2)cc1Br,,inactive: -3.53% [at 9.22 µM]
CCCCn1cnc2sc(-c3ccccc3)cc2c1=O,inactive,
Cc1cc(C)cc(NS(=O)(=O)c2ccc3[nH]cc(C(=O)N4CCc5ccccc54)c(=O)c3c2)c1,"inconclusive: 35.5 µM [inhibitor, single point]",
COCC(C)NC(C(=O)Nc1cccc(C(C)=O)c1)c1ccccc1 (centres undefined),inactive,
COc1ccc(N(C)S(=O)(=O)c2cccc(C(=O)NCC3CCCCC3)c2)cc1,"inconclusive: 8.91 µM [inhibitor, single point]",
COc1ccc(CCC(C)Nc2ccccc2F)cc1 (centres undefined),inactive,
COc1ccccc1-c1nn2c(C3COc4ccccc4O3)nnc2s1 (centres undefined),inactive,
CCOc1ccc(NC(=O)NNC(=O)C2CCC(C(C)(C)C)CC2)cc1 (centres undefined),,inactive: -1.65% [at 9.22 µM]
CCCSC(=S)NC1CCS(=O)(=O)C1 (centres undefined),"inconclusive: 35.5 µM [inhibitor, single point]",
NC(=S)N/N=C/c1ccc2ccccc2c1,"inconclusive: 0.708 µM [inhibitor, single point]",

# Part of the list above, with bars between the fields.
Structure (SMILES) | Potency | activity change, negative = inhibition
Oc1ccc(N=Cc2sc3ccccc3c2Cl)cc1 | inconclusive: 15.8 µM [activator, partial curve] | 
Cc1cc(C)nc(SCC(=O)N/N=C/c2cccn2-c2cccc(C(F)(F)F)c2)n1 | inactive | 
CCOC(=O)C(C)/C(C)=N/NC(=O)c1cc2ccccc2cc1O (centres undefined) | inconclusive: 35.5 µM [inhibitor, single point] | 

# Following part.

Structure (SMILES),Potency,"activity change, negative = inhibition"
CCN(c1cccc(C)c1)c1ncnc2nc[nH]c12,active: 8.91 µM,
O=C(CNC(=S)N(Cc1ccccc1)Cc1cccs1)NCc1ccc(F)cc1,"inconclusive: 35.5 µM [inhibitor, single point]",
O=C1OCCC1Sc1nc2cc(Cl)ccc2n1Cc1ccccc1 (centres undefined),inactive,
CC(CCc1ccccc1)NC(=O)COC(=O)c1ccc(S(C)(=O)=O)c([N+](=O)[O-])c1 (centres undefined),"inconclusive: 35.5 µM [inhibitor, single point]",
O=C(N/N=C/c1cc2c3c(c1O)CCCN3CCC2)c1ccccc1O,active: 0.891 µM,
COc1ccc(OC)c(C(C)NC=O)c1 (centres undefined),"inconclusive: 0.631 µM [activator, single point]",
Cn1ccnc1SCC(=O)c1ccc(Br)cc1,inactive,
CCOC(=O)C1CCN(S(=O)(=O)c2cccc(-c3cn4cc(Cl)ccc4n3)c2)CC1,"inconclusive: 2.82 µM [inhibitor, partial curve]",
Cc1cc[n+](C(C)C(=O)c2ccc(-c3ccccc3)cc2)cc1 (centres undefined),"inconclusive: 12.6 µM [inhibitor, single point]",
c1ccc(-c2csc3nnc(SCc4ccc5c(c4)OCO5)n23)cc1,active: 10 µM,
CCOc1ccc(S(=O)(=O)N2CCCCCC2)c2ccccc12,"inconclusive: 10 µM [inhibitor, partial curve]",
O=C(NC1CC1)c1cc2c(s1)-c1ccccc1OC2,active: 6.31 µM,
COc1ccccc1N1C(=O)N(C(C)=O)C2C1Nc1ccccc1N2C (centres undefined),"inconclusive: 10 µM [inhibitor, partial curve]",
COC(=O)c1ccc(Cl)cc1NC(=O)/C=C/c1ccc(C)o1,"inconclusive: 35.5 µM [activator, single point]",
COC(=O)C(C)Sc1nnc(SC(C)C(=O)OC)s1 (centres undefined),inactive,
Cc1ccccc1CS(=O)(=O)c1nnc([C@H](CC(C)C)NC(=O)OC(C)(C)C)o1,"inconclusive: 35.5 µM [inhibitor, single point]",
CN(C)c1ccc(C(=O)n2nnc3ccccc32)cc1,"inconclusive: 35.5 µM [activator, single point]",
Cc1ccc(NC(=O)Nc2ccnc(-c3cccnc3)n2)cc1,"inconclusive: 0.708 µM [activator, full curve]",
O=C(CN1CCN(CC(=O)Nc2ccccc2F)CC1)Nc1ccc2c(c1)OCCO2,inactive,
Cc1nc([N+](=O)[O-])c(Br)n1Cc1ccc(Cl)c(Cl)c1,active: 8.91 µM,
COc1ccc2cc(C(=O)Nc3ccc(F)cc3)sc(=O)c2c1OC,inactive,
Cn1cc(/C=C(\C#N)C(=O)Nc2ncc(Cc3cccc(Cl)c3)s2)c2ccccc21,"inconclusive: 3.98 µM [activator, single point]",
CCN1CCN(C(C)C(=O)Nc2c(C)n(C)n(-c3ccccc3)c2=O)CC1 (centres undefined),inactive,
CCn1c(C)nc2cc(C(=O)N/N=C(\C)c3ccc(OC)cc3O)ccc21,"inconclusive: 7.94 µM [inhibitor, partial curve]",
